Experimental data as given in paper PMC5825165, “EAT1 transcription factor, a non-cell-autonomous regulator of pollen production, activates meiotic small RNA biogenesis in rice anther tapetum” (PLoS Genetics, 2018).
Results are given in words; binding and its absence hold for the method and conditions named. In cells and extracts the contact can be indirect. Some binding calls cover weakened binding; strength is not graded here. Tags and fused reporters may be left off the sequences shown.

T1: UDT1-nYFP (UNDEVELOPED TAPETUM1 fused with the N-terminal split of YFP) (rice (japonica cv. Nipponbare)) (UniProt B9FXT3)
T1 sequence: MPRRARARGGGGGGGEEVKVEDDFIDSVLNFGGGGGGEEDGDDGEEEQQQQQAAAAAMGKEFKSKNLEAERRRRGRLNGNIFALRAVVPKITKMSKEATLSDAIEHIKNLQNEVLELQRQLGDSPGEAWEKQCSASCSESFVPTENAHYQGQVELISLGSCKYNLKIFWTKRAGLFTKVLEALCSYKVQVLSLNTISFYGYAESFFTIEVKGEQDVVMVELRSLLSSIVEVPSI

T2: nYFP-UDT1 (UNDEVELOPED TAPETUM1 fused with the N-terminal split of YFP) (rice (japonica cv. Nipponbare)) (UniProt B9FXT3)
T2 sequence: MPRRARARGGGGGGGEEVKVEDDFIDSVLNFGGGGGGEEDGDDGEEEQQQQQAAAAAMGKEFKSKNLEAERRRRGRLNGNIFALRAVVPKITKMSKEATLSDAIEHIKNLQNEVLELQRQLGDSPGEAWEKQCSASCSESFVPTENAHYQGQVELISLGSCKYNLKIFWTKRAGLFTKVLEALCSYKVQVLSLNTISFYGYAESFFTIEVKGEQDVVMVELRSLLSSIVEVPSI


Columns and labels:
[1] = biological target: T1, UDT1-nYFP (UNDEVELOPED TAPETUM1 fused with the N-terminal split of YFP) (rice (japonica cv. Nipponbare)); test: split reporter; BiFC in rice protoplasts; pairs of split YFP (nYFP/cYFP) fusions cotransfected with the nuclear marker H2B-tagRFP; confocal images under identical conditions, compared with negative controls
[2] = biological target: T2, nYFP-UDT1 (UNDEVELOPED TAPETUM1 fused with the N-terminal split of YFP) (rice (japonica cv. Nipponbare)); test: as above

binding [1]	binding [2]	Binder
binds	binds	TIP2-cYFP (TDR … PROTEIN2 fused with the C-terminal split of YFP) (protein, UniProt Q5JNS0 1-379) MYHPQCELLMPLESLEMDVGQSHLAAAVAAAMPGELNFHLLHSLDAAAAAASSTAASASSQPTVDYFFGGADQQPPPPAAMQYDQLAAPHHHQTVAMLRDYYGGHYPPAAAAAAATEAYFRGGPRTAGSSSLVFGPADDESAFMVGPFESSPTPRSGGGRKRSRATAGFHGGGPANGVEKKEKQRRLRLTEKYNALMLLIPNRTKEDRATVISDAIEYIQELGRTVEELTLLVEKKRRRREMQGDVVDAATSSVVAGMDQAAESSEGEVMAAAAMGAVAPPPRQAPIRSTYIQRRSKETFVDVRIVEDDVNIKLTKRRRDGCLAAASRALDDLRLDLVHLSGGKIGDCHIYMFNTKIHSGSPVFASAVASRLIEVVDEY
binds	binds	cYFP-TIP2 (TDR … PROTEIN2 fused with the C-terminal split of YFP) (protein, UniProt Q5JNS0 1-379) MYHPQCELLMPLESLEMDVGQSHLAAAVAAAMPGELNFHLLHSLDAAAAAASSTAASASSQPTVDYFFGGADQQPPPPAAMQYDQLAAPHHHQTVAMLRDYYGGHYPPAAAAAAATEAYFRGGPRTAGSSSLVFGPADDESAFMVGPFESSPTPRSGGGRKRSRATAGFHGGGPANGVEKKEKQRRLRLTEKYNALMLLIPNRTKEDRATVISDAIEYIQELGRTVEELTLLVEKKRRRREMQGDVVDAATSSVVAGMDQAAESSEGEVMAAAAMGAVAPPPRQAPIRSTYIQRRSKETFVDVRIVEDDVNIKLTKRRRDGCLAAASRALDDLRLDLVHLSGGKIGDCHIYMFNTKIHSGSPVFASAVASRLIEVVDEY
binds	binds	EAT1-cYFP (ETERNAL TAPETUM1 fused with the C-terminal split of YFP) (natural protein, rice (japonica cv. Nipponbare), UniProt Q7X8R0 1-464, looked up) MIVGAGYFEDSHDQSLMAGSLIHDSNQAPASSENTSIDLQKFKVHPYSTEALSNTANLAEAARAINHLQHQLEIDLEQEVPPVETANWDPAICTIPDHIINHQFSEDPQNILVEQQIQQYDSALYPNGVYTPAPDLLNLMQCTMAPAFPATTSVFGDTTLNGTNYLDLNGELTGVAAVPDSGSGLMFASDSALQLGYHGTQSHLIKDICHSLPQNYGLFPSEDERDVIIGVGSGDLFQEIDDRQFDSVLECRRGKGEFGKGKGKANFATERERREQLNVKFRTLRMLFPNPTKNDRASIVGDAIEYIDELNRTVKELKILVEQKRHGNNRRKVLKLDQEAAADGESSSMRPVRDDQDNQLHGAIRSSWVQRRSKECHVDVRIVDDEVNIKLTEKKKANSLLHAAKVLDEFQLELIHVVGGIIGDHHIFMFNTKVSEGSAVYACAVAKKLLQAVDVQHQALDIFN
binds	binds	cYFP-EAT1 (ETERNAL TAPETUM1 fused with the C-terminal split of YFP) (protein, UniProt Q7X8R0 1-464) MIVGAGYFEDSHDQSLMAGSLIHDSNQAPASSENTSIDLQKFKVHPYSTEALSNTANLAEAARAINHLQHQLEIDLEQEVPPVETANWDPAICTIPDHIINHQFSEDPQNILVEQQIQQYDSALYPNGVYTPAPDLLNLMQCTMAPAFPATTSVFGDTTLNGTNYLDLNGELTGVAAVPDSGSGLMFASDSALQLGYHGTQSHLIKDICHSLPQNYGLFPSEDERDVIIGVGSGDLFQEIDDRQFDSVLECRRGKGEFGKGKGKANFATERERREQLNVKFRTLRMLFPNPTKNDRASIVGDAIEYIDELNRTVKELKILVEQKRHGNNRRKVLKLDQEAAADGESSSMRPVRDDQDNQLHGAIRSSWVQRRSKECHVDVRIVDDEVNIKLTEKKKANSLLHAAKVLDEFQLELIHVVGGIIGDHHIFMFNTKVSEGSAVYACAVAKKLLQAVDVQHQALDIFN
